PubChem BioAssay AID1671195, Yale University, 2021
Screen: 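Genes whose knockdown alters LDL uptake in liver cancer cells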 (primary screen). System: human Huh7 hepatoma cells. Reagents: siRNA pool against human genes, 18 nM. Time to read-out: about 2 to 2.5 days of knockdown, then 8 h LDL uptake. Treatment: DiI-labelled LDL at 30 µg/ml for 8 h, in lipoprotein-deficient serum medium. Read-out: 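Fluorescent LDL signal imaged in cells, scaled to the plate median, robust z-score for each replicate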. Direction: robust z-score: higher = more LDL uptake after knockdown. Rule for the call: 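Active when two or more replicates show a robust z-score above 2 or below -2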.
In all, the deposit lists about 22,000 reagents; below is a part drawn at random. Of all reagents, about 1,510 (6.9%) are marked active. 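Active includes knockdowns raising or lowering LDL uptake; positive z-scores mean more uptake, negative mean less.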 The numbers tell different reagents against one gene apart. No sequences are given here.

{"gene": "DNHD1 (dynein heavy chain domain 1)", "reagent no.": 1, "robust z-score, replicate 1": -0.71, "robust z-score, replicate 2": 0.179, "robust z-score, replicate 3": 0.0674, "outcome": "inactive"}
{"gene": "DNHD1 (dynein heavy chain domain 1)", "reagent no.": 2, "robust z-score, replicate 1": -0.531, "robust z-score, replicate 2": -0.291, "robust z-score, replicate 3": -0.563, "outcome": "inactive"}
{"gene": "DNHD1 (dynein heavy chain domain 1)", "reagent no.": 3, "robust z-score, replicate 1": -1.53, "robust z-score, replicate 2": -1.47, "robust z-score, replicate 3": -1.38, "outcome": "inactive"}
{"gene": "FBXW2 (F-box and WD repeat domain containing 2)", "reagent no.": 1, "robust z-score, replicate 1": 1.26, "robust z-score, replicate 2": -0.554, "robust z-score, replicate 3": 0.885, "outcome": "inactive"}
{"gene": "PHC3 (polyhomeotic homolog 3)", "reagent no.": 1, "robust z-score, replicate 1": 0.686, "robust z-score, replicate 2": 0.0384, "robust z-score, replicate 3": 0.55, "outcome": "inactive"}
{"gene": "NBL1 (NBL1, DAN family BMP antagonist)", "reagent no.": 1, "robust z-score, replicate 1": 0.148, "robust z-score, replicate 2": -0.165, "robust z-score, replicate 3": 0.317, "outcome": "inactive"}
{"gene": "GPR12 (G protein-coupled receptor 12)", "reagent no.": 1, "robust z-score, replicate 1": -2.3, "robust z-score, replicate 2": -2.1, "robust z-score, replicate 3": -2.59, "outcome": "active"}
{"gene": "SLC1A3", "reagent no.": 1, "robust z-score, replicate 1": -0.632, "robust z-score, replicate 2": -0.887, "robust z-score, replicate 3": -0.841, "outcome": "inactive"}
{"gene": "PRDM10 (PR/SET domain 10)", "reagent no.": 1, "robust z-score, replicate 1": -1.04, "robust z-score, replicate 2": -1.46, "robust z-score, replicate 3": -1.75, "outcome": "inactive"}
{"gene": "DMRTA1 (DMRT like family A1)", "reagent no.": 1, "robust z-score, replicate 1": -0.293, "robust z-score, replicate 2": -0.619, "robust z-score, replicate 3": -0.549, "outcome": "inactive"}
{"gene": "RPL13A (ribosomal protein L13a)", "reagent no.": 1, "robust z-score, replicate 1": 0.447, "robust z-score, replicate 2": -2.29, "robust z-score, replicate 3": 0.397, "outcome": "inactive"}
{"gene": "UBFD1 (ubiquitin family domain containing 1)", "reagent no.": 1, "robust z-score, replicate 1": -0.246, "robust z-score, replicate 2": 0.989, "robust z-score, replicate 3": -1.03, "outcome": "inactive"}
{"gene": "BABAM2 (BRISC and BRCA1 A complex member 2)", "reagent no.": 1, "robust z-score, replicate 1": -1.27, "robust z-score, replicate 2": 0.134, "robust z-score, replicate 3": -1.08, "outcome": "inactive"}
{"gene": "SLC39A4", "reagent no.": 1, "robust z-score, replicate 1": -1.52, "robust z-score, replicate 2": -1.01, "robust z-score, replicate 3": -1.03, "outcome": "inactive"}
{"gene": "KCNK10 (potassium two pore domain channel subfamily K member 10)", "reagent no.": 1, "robust z-score, replicate 1": -0.745, "robust z-score, replicate 2": -0.909, "robust z-score, replicate 3": -0.222, "outcome": "inactive"}
{"gene": "BEX1 (brain expressed X-linked 1)", "reagent no.": 1, "robust z-score, replicate 1": 2.64, "robust z-score, replicate 2": 2.51, "robust z-score, replicate 3": -0.0924, "outcome": "active"}
{"gene": "CHFR (checkpoint with forkhead and ring finger domains)", "reagent no.": 1, "robust z-score, replicate 1": -0.794, "robust z-score, replicate 2": -0.0301, "robust z-score, replicate 3": -0.837, "outcome": "inactive"}
{"gene": "DAB2 (DAB adaptor protein 2)", "reagent no.": 1, "robust z-score, replicate 1": -0.93, "robust z-score, replicate 2": -0.482, "robust z-score, replicate 3": -0.875, "outcome": "inactive"}
{"gene": "TRIM51 (tripartite motif-containing 51)", "reagent no.": 1, "robust z-score, replicate 1": -1.26, "robust z-score, replicate 2": -0.511, "robust z-score, replicate 3": -0.181, "outcome": "inactive"}
{"gene": "CISD3 (CDGSH iron sulfur domain 3)", "reagent no.": 1, "robust z-score, replicate 1": -1.4, "robust z-score, replicate 2": -1.57, "robust z-score, replicate 3": -1.68, "outcome": "inactive"}
{"gene": "RNASET2 (ribonuclease T2)", "reagent no.": 1, "robust z-score, replicate 1": 0.578, "robust z-score, replicate 2": 0.193, "robust z-score, replicate 3": 0.56, "outcome": "inactive"}
{"gene": "CWF19L1 (CWF19 like cell cycle control factor 1)", "reagent no.": 1, "robust z-score, replicate 1": 1.3, "robust z-score, replicate 2": 1.2, "robust z-score, replicate 3": 0.448, "outcome": "inactive"}
{"gene": "EDEM3 (ER degradation enhancing alpha-mannosidase like protein 3)", "reagent no.": 1, "robust z-score, replicate 1": -0.244, "robust z-score, replicate 2": 0.134, "robust z-score, replicate 3": -0.0248, "outcome": "inactive"}
{"gene": "AJUBA (ajuba LIM protein)", "reagent no.": 1, "robust z-score, replicate 1": 0.696, "robust z-score, replicate 2": 3.48, "robust z-score, replicate 3": 2.3, "outcome": "active"}

Reformatted: entries from further up.
| gene | reagent no. | robust z-score, replicate 1 | robust z-score, replicate 2 | robust z-score, replicate 3 | outcome |
| --- | --- | --- | --- | --- | --- |
| DNHD1 (dynein heavy chain domain 1) | 3 | -1.53 | -1.47 | -1.38 | inactive |
| FBXW2 (F-box and WD repeat domain containing 2) | 1 | 1.26 | -0.554 | 0.885 | inactive |
| PHC3 (polyhomeotic homolog 3) | 1 | 0.686 | 0.0384 | 0.55 | inactive |
